{"source": "the supplement of paper PMC4604168 (melanoma cell lines)", "note": "The other results are listed elsewhere or left out. Many values rest on one well or one pass, so single values are uncertain.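 The apoptosis fraction was the count of cleaved-PARP antibody-stained nuclei relative to all DNA-stained nuclei, imaged in 1,536-well plates. Screening doses were set so most cells survived, and baseline and induced cleaved-PARP levels vary greatly across cell lines.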", "data": [{"system": "WM3619", "test": "cleaved PARP positive nuclei fraction relative to DMSO control; melanoma cells; higher = more apoptosis", "details": "library dose: low library concentration; 72 h", "units": {"cleaved PARP positive nuclei fraction": "%"}, "values": [{"smiles": "Cn1cnc2c(F)c(Nc3ccc(Br)cc3Cl)c(C(=O)NOCCO)cc21", "note": "[selumetinib] + COc1ccc(-c2ccc3c(N4CCOCC4)nc(N4C[C@@H](C)O[C@@H](C)C4)nc3n2)cc1CO [KU0063794] (first compound 0.015 µM, partner dose 0.02 µM)", "cleaved PARP positive nuclei fraction": 99.3}, {"smiles": "CC1(C)CCC(c2ccc(Cl)cc2)=C(CN2CCN(c3ccc(C(=O)NS(=O)(=O)c4ccc(N[C@H](CCN5CCOCC5)CSc5ccccc5)c(S(=O)(=O)C(F)(F)F)c4)cc3)CC2)C1", "note": "+ CN(NC(=O)CC(=O)NN(C)C(=S)c1ccccc1)C(=S)c1ccccc1 [STA4783] (first compound 0.4 µM, partner dose 0.006 µM)", "cleaved PARP positive nuclei fraction": 147}, {"smiles": "NC(=O)c1ccc(N(C(N)=O)c2c(F)cccc2F)nc1-c1ccc(F)cc1F", "note": "+ C=CCNC1=C2C[C@@H](C)C[C@H](OC)[C@H](O)[C@@H](C)/C=C(\\C)[C@H](OC(N)=O)[C@@H](OC)/C=C\\C=C(/C)C(=O)NC(=CC1=O)C2=O [Tanespimycin] (first compound 0.4 µM, partner dose 0.002 µM)", "cleaved PARP positive nuclei fraction": 154}, {"smiles": "Cn1cnc2c(F)c(Nc3ccc(Br)cc3Cl)c(C(=O)NOCCO)cc21", "note": "[selumetinib] + Cn1c(Nc2ccc(C(F)(F)F)cc2)nc2cc(Oc3ccnc(-c4ncc(C(F)(F)F)[nH]4)c3)ccc21 [CHIR265] (first compound 0.015 µM, partner dose 0.08 µM)", "cleaved PARP positive nuclei fraction": 251}, {"smiles": "NC(=O)c1ccc(N(C(N)=O)c2c(F)cccc2F)nc1-c1ccc(F)cc1F", "note": "+ C[C@]1(c2nc3c(C(N)=O)cccc3[nH]2)CCCN1 [Veliparib] (first compound 0.4 µM, partner dose 1.4 µM)", "cleaved PARP positive nuclei fraction": 92.3}, {"smiles": "NC1(c2ccc(-c3nc4ccn5c(=O)[nH]nc5c4cc3-c3ccccc3)cc2)CCC1", "note": "+ Cn1cc(/C=C2\\C(=O)Nc3cccnc32)c2ccccc21 [GW441756] (first compound 0.4 µM, partner dose 0.4 µM)", "cleaved PARP positive nuclei fraction": 108}, {"smiles": "CN(c1ncccc1CNc1nc(Nc2ccc3c(c2)CC(=O)N3)ncc1C(F)(F)F)S(C)(=O)=O", "note": "+ CCN(CC)CCCCNc1ncc2cc(-c3cc(OC)cc(OC)c3)c(NC(=O)NC(C)(C)C)nc2n1 [PD173074] (first compound 0.08 µM, partner dose 0.1 µM)", "cleaved PARP positive nuclei fraction": 69.1}, {"smiles": "CC1(C)CCC(c2ccc(Cl)cc2)=C(CN2CCN(c3ccc(C(=O)NS(=O)(=O)c4ccc(N[C@H](CCN5CCOCC5)CSc5ccccc5)c(S(=O)(=O)C(F)(F)F)c4)cc3)CC2)C1", "note": "+ O=C(O)[C@@H]1[O][Sb](=[O])([O][Sb]2(=[O])[O][C@H]([C@H](O)CO)[C@H](O)[C@H](C(=O)O)[O]2)[O][C@H]([C@H](O)CO)[C@@H]1O [stibogluconate] (first compound 0.4 µM, partner dose 2 µM)", "cleaved PARP positive nuclei fraction": 127}, {"smiles": "CS(=O)(=O)c1ccc(C(=O)Nc2ccc(Cl)c(-c3ccccn3)c2)c(Cl)c1", "note": "[vismodegib] + C#Cc1cccc(Nc2ncnc3cc(OCCOC)c(OCCOC)cc23)c1 [erlotinib] (first compound 1 µM, partner dose 0.8 µM)", "cleaved PARP positive nuclei fraction": 76.3}, {"smiles": "CN(c1ncccc1CNc1nc(Nc2ccc3c(c2)CC(=O)N3)ncc1C(F)(F)F)S(C)(=O)=O", "note": "+ C#Cc1cccc(Nc2ncnc3cc(OCCOC)c(OCCOC)cc23)c1 [erlotinib] (first compound 0.08 µM, partner dose 0.8 µM)", "cleaved PARP positive nuclei fraction": 92}, {"smiles": "CC1(C)CCC(c2ccc(Cl)cc2)=C(CN2CCN(c3ccc(C(=O)NS(=O)(=O)c4ccc(N[C@H](CCN5CCOCC5)CSc5ccccc5)c(S(=O)(=O)C(F)(F)F)c4)cc3)CC2)C1", "note": "+ O=C(O)c1ccc2c(c1)nc(Nc1cccc(Cl)c1)c1ccncc12 [CX4945] (first compound 0.4 µM, partner dose 0.4 µM)", "cleaved PARP positive nuclei fraction": 114}, {"smiles": "COc1ccc(C2=N[C@@H](c3ccc(Cl)cc3)[C@@H](c3ccc(Cl)cc3)N2C(=O)N2CCNC(=O)C2)c(OC(C)C)c1", "note": "[Nutlin-3] + COc1cc2c(Oc3ccc4[nH]c(C)cc4c3F)ncnc2cc1OCCCN1CCCC1 [cediranib] (first compound 0.1 µM, partner dose 0.4 µM)", "cleaved PARP positive nuclei fraction": 97}, {"smiles": "CC(=O)O[C@@]12CO[C@@H]1C[C@H](O)[C@@]1(C)C(=O)[C@H](O)C3=C(C)[C@@H](OC(=O)[C@H](O)[C@@H](NC(=O)OC(C)(C)C)c4ccccc4)C[C@@](O)([C@@H](OC(=O)c4ccccc4)[C@H]21)C3(C)C", "note": "[Docetaxel] + Cn1c(Nc2ccc(C(F)(F)F)cc2)nc2cc(Oc3ccnc(-c4ncc(C(F)(F)F)[nH]4)c3)ccc21 [CHIR265] (first compound 0.0001 µM, partner dose 0.08 µM)", "cleaved PARP positive nuclei fraction": 156}, {"smiles": "CS(=O)(=O)c1ccc(C(=O)Nc2ccc(Cl)c(-c3ccccn3)c2)c(Cl)c1", "note": "[vismodegib] + Nc1ccn([C@@H]2O[C@H](CO)[C@@H](O)C2(F)F)c(=O)n1 [gemcitabine] (first compound 1 µM, partner dose 0.0004 µM)", "cleaved PARP positive nuclei fraction": 111}, {"smiles": "CCCCCCCCc1ccc(CCC(N)(CO)CO)cc1", "note": "[fingolimod] + CCN(CC)CCCCNc1ncc2cc(-c3cc(OC)cc(OC)c3)c(NC(=O)NC(C)(C)C)nc2n1 [PD173074] (first compound 2 µM, partner dose 0.1 µM)", "cleaved PARP positive nuclei fraction": 100}, {"smiles": "COc1ccc(C2=N[C@@H](c3ccc(Cl)cc3)[C@@H](c3ccc(Cl)cc3)N2C(=O)N2CCNC(=O)C2)c(OC(C)C)c1", "note": "[Nutlin-3] + Nc1nc(F)nc2c1ncn2[C@@H]1O[C@H](CO)[C@@H](O)[C@@H]1O [fludarabine] (first compound 0.1 µM, partner dose 0.2 µM)", "cleaved PARP positive nuclei fraction": 104}, {"smiles": "NC(=O)c1ccc(N(C(N)=O)c2c(F)cccc2F)nc1-c1ccc(F)cc1F", "note": "+ CS(=O)(=O)CCNCc1ccc(-c2ccc3ncnc(Nc4ccc(OCc5cccc(F)c5)c(Cl)c4)c3c2)o1 [lapatinib] (first compound 0.4 µM, partner dose 0.8 µM)", "cleaved PARP positive nuclei fraction": 74.9}, {"smiles": "NC1(c2ccc(-c3nc4ccn5c(=O)[nH]nc5c4cc3-c3ccccc3)cc2)CCC1", "note": "+ C=C(c1ccc(C(=O)O)cc1)c1cc2c(cc1C)C(C)(C)CCC2(C)C [Bexarotene] (first compound 0.4 µM, partner dose 2 µM)", "cleaved PARP positive nuclei fraction": 91.2}, {"smiles": "Cn1cnc2c(F)c(Nc3ccc(Br)cc3Cl)c(C(=O)NOCCO)cc21", "note": "[selumetinib] + O=C(Nc1cccc(Cl)c1)Nc1ncc(CCNc2ncnc3ccsc23)s1 [SNS314] (first compound 0.015 µM, partner dose 0.0008 µM)", "cleaved PARP positive nuclei fraction": 122}, {"smiles": "Cn1sc(=O)n(Cc2ccccc2)c1=O", "note": "+ CNC(=O)c1cc(Oc2ccc(NC(=O)Nc3ccc(Cl)c(C(F)(F)F)c3)cc2)ccn1 [sorafenib] (first compound 0.4 µM, partner dose 0.4 µM)", "cleaved PARP positive nuclei fraction": 116}, {"smiles": "NC(=O)c1ccc(N(C(N)=O)c2c(F)cccc2F)nc1-c1ccc(F)cc1F", "note": "+ CC(C)C[C@H](NC(=O)[C@H](Cc1ccccc1)NC(=O)c1cnccn1)B(O)O [Bortezomib] (first compound 0.4 µM, partner dose 0.001 µM)", "cleaved PARP positive nuclei fraction": 249}, {"smiles": "NC(=O)c1ccc(N(C(N)=O)c2c(F)cccc2F)nc1-c1ccc(F)cc1F", "note": "+ C[C@]1(O)C[C@@H](c2nc(-c3ccc4ccc(-c5ccccc5)nc4c3)c3c(N)nccn32)C1 [OSI906] (first compound 0.4 µM, partner dose 0.4 µM)", "cleaved PARP positive nuclei fraction": 455}, {"smiles": "CS(=O)(=O)c1ccc(C(=O)Nc2ccc(Cl)c(-c3ccccn3)c2)c(Cl)c1", "note": "[vismodegib] + COCC[n+]1c2c(n(Cc3cnccn3)c1C)C(=O)c1ccccc1C2=O [YM155] (first compound 1 µM, partner dose 0.0004 µM)", "cleaved PARP positive nuclei fraction": 104}, {"smiles": "Cn1sc(=O)n(Cc2ccccc2)c1=O", "note": "+ Cn1cncc1[C@@](N)(c1ccc(Cl)cc1)c1ccc2c(c1)c(-c1cccc(Cl)c1)cc(=O)n2C [tipifarnib] (first compound 0.4 µM, partner dose 0.01 µM)", "cleaved PARP positive nuclei fraction": 129}, {"smiles": "CCN(CC)CCNC(=O)c1c(C)[nH]c(/C=C2\\C(=O)Nc3ccc(F)cc32)c1C", "note": "[sunitinib] + CC(C)(C)c1cnc(CSc2cnc(NC(=O)C3CCNCC3)s2)o1 [SNS-032] (first compound 0.4 µM, partner dose 0.01 µM)", "cleaved PARP positive nuclei fraction": 106}, {"smiles": "CC1(C)CCC(c2ccc(Cl)cc2)=C(CN2CCN(c3ccc(C(=O)NS(=O)(=O)c4ccc(N[C@H](CCN5CCOCC5)CSc5ccccc5)c(S(=O)(=O)C(F)(F)F)c4)cc3)CC2)C1", "note": "+ C=C(c1ccc(C(=O)O)cc1)c1cc2c(cc1C)C(C)(C)CCC2(C)C [Bexarotene] (first compound 0.4 µM, partner dose 2 µM)", "cleaved PARP positive nuclei fraction": 148}, {"smiles": "Cn1sc(=O)n(Cc2ccccc2)c1=O", "note": "+ CCN(CC)CCCCNc1ncc2cc(-c3cc(OC)cc(OC)c3)c(NC(=O)NC(C)(C)C)nc2n1 [PD173074] (first compound 0.4 µM, partner dose 0.1 µM)", "cleaved PARP positive nuclei fraction": 103}, {"smiles": "CC1(C)CCC(c2ccc(Cl)cc2)=C(CN2CCN(c3ccc(C(=O)NS(=O)(=O)c4ccc(N[C@H](CCN5CCOCC5)CSc5ccccc5)c(S(=O)(=O)C(F)(F)F)c4)cc3)CC2)C1", "note": "+ Cn1sc(=O)n(Cc2ccccc2)c1=O [TDZD-8] (first compound 0.4 µM, partner dose 0.4 µM)", "cleaved PARP positive nuclei fraction": 92.8}, {"smiles": "C[C@]1(O)C[C@@H](c2nc(-c3ccc4ccc(-c5ccccc5)nc4c3)c3c(N)nccn32)C1", "note": "+ Cc1cc(Nc2cc(N3CCN(C)CC3)nc(/C=C/c3ccccc3)n2)n[nH]1 [ENMD2076] (first compound 0.4 µM, partner dose 0.04 µM)", "cleaved PARP positive nuclei fraction": 92.6}]}]}
